# Assay results published in the supplement of paper PMC6411743.
# Amino acid sequences for entries named in this document (tags omitted). A change or cut given only in a name is not applied to a line headed by its entry.
# UniProt Q9Y6Y8: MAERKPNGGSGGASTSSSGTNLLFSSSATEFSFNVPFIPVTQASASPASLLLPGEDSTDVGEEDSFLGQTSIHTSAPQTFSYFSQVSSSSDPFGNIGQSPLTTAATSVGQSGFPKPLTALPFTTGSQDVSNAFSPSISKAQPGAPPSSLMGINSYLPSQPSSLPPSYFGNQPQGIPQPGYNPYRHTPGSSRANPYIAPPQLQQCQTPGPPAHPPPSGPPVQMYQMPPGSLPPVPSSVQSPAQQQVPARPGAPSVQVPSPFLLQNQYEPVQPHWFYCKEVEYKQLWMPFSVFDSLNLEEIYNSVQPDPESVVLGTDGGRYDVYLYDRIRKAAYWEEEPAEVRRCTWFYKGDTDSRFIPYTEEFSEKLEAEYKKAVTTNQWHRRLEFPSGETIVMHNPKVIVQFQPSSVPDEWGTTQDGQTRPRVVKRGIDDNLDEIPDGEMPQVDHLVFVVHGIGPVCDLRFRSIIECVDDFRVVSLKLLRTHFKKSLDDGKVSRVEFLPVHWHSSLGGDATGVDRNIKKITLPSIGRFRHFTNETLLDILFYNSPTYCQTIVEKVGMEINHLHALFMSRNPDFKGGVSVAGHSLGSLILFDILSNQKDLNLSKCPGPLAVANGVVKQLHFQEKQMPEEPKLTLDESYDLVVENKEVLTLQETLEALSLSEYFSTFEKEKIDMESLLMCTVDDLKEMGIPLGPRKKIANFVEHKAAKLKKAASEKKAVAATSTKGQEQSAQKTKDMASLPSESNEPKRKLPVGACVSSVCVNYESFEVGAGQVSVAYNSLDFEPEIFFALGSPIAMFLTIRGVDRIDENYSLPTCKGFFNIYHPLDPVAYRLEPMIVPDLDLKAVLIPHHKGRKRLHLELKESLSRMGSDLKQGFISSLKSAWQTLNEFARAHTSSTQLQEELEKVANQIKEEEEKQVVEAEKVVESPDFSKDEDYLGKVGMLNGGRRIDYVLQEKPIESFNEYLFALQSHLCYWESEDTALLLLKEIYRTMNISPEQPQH
# UniProt Q9UPQ9, whole entry: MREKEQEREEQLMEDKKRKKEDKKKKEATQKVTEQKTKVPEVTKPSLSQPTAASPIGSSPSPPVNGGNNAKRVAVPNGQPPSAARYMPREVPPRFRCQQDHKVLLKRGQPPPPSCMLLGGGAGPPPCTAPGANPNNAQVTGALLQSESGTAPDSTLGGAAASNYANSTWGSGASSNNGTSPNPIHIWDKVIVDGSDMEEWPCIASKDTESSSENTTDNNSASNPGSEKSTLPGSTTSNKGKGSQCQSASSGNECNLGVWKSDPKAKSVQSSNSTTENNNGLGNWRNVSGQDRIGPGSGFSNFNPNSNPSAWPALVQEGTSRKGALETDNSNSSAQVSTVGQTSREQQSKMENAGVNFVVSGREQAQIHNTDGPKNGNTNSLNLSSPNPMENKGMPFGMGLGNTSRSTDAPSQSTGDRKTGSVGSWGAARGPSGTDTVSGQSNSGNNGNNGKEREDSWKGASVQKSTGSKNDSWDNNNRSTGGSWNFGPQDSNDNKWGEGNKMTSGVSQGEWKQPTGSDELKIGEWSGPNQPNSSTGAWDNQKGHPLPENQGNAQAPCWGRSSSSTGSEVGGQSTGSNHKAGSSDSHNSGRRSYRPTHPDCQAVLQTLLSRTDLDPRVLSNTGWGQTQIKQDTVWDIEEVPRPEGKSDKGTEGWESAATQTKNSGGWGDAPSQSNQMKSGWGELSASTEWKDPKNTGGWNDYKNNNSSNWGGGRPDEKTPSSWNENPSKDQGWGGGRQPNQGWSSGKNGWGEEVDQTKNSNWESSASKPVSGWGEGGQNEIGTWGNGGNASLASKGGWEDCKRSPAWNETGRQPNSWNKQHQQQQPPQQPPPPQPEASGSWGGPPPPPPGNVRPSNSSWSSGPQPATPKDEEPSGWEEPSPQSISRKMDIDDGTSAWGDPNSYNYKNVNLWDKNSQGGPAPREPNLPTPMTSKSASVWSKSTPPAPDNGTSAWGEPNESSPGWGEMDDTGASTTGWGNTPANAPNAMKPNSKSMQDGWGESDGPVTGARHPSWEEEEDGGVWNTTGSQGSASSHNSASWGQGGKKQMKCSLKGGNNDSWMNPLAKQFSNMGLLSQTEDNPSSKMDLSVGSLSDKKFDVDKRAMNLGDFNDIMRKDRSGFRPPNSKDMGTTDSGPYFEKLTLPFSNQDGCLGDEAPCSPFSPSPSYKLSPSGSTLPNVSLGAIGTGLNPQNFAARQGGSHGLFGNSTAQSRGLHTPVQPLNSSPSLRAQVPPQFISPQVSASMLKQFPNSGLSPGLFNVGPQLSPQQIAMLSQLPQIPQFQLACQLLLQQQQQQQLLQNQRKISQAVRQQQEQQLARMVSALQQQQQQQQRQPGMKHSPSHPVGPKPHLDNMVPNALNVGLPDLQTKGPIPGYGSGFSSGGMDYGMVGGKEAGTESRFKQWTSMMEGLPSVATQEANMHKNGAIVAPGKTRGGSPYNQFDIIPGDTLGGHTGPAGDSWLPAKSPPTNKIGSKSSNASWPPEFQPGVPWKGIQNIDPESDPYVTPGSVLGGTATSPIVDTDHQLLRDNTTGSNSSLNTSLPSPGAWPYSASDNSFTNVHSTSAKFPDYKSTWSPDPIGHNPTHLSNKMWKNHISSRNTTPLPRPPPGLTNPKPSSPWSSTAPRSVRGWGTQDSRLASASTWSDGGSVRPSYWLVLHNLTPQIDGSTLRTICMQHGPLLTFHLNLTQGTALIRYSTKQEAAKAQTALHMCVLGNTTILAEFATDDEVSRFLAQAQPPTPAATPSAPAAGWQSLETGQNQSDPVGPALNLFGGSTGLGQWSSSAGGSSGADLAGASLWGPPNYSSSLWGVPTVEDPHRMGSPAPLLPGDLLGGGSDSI
# UniProt Q9Y6A4: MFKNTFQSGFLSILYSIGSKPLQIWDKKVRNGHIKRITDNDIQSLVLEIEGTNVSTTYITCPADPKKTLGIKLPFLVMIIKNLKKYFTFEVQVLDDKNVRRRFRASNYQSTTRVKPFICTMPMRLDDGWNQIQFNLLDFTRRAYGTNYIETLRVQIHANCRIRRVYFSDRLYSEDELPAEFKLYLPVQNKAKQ
# UniProt Q9Y5X2: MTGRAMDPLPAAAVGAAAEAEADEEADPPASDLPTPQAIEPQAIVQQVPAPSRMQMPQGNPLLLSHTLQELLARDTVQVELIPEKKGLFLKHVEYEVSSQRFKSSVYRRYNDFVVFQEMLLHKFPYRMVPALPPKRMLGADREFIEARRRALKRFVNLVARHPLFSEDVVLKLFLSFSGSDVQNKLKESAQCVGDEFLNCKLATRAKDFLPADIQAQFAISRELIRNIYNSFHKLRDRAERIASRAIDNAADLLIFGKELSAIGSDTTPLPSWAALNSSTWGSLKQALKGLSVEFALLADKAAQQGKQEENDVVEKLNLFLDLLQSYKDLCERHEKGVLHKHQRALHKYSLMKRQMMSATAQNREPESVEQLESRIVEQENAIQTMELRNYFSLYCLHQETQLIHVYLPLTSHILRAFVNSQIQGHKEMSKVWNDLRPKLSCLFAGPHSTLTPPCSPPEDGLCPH
# UniProt Q9Y3P8: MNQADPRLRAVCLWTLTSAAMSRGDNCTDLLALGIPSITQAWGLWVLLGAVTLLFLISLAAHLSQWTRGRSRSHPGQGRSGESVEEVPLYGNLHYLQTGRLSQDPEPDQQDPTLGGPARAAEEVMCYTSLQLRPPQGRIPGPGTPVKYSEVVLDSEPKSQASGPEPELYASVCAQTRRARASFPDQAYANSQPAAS
# ± gives the standard deviation of the averaged measurements. The list shows a part of the results.
# Compound: Nc1nc2c(ncn2[C@@H]2O[C@H](COP(=O)(O)OP(=O)(O)OP(=O)(O)O)[C@@H](O)[C@H]2O)c(=O)[nH]1 [guanosine triphosphate]
# Assay: NP40-soluble protein abundance relative to vehicle (solubility fold change) (ratio); higher = more soluble protein in presence of GTP
# Method: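 Solubility proteome profiling in Jurkat crude lysate. Lysate was treated with Mg-GTP (0.1-10 mM) for 10 min at room temperature and 3 min at 37 °C, then solubilised with 0.8% NP40 and benzonase, followed by ultracentrifugation. Proteins were quantified by TMT10 LC-MS/MS; the value is the NP40-soluble abundance relative to the NP40-processed vehicle, from 3 independent experiments.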
Target,NP40-soluble protein abundance (concentration: 0.1mM),NP40-soluble protein abundance (concentration: 0.5mM),NP40-soluble protein abundance (concentration: 1mM),NP40-soluble protein abundance (concentration: 2mM),NP40-soluble protein abundance (concentration: 4mM),NP40-soluble protein abundance (concentration: 6mM),NP40-soluble protein abundance (concentration: 8mM),NP40-soluble protein abundance (concentration: 10mM)
SEC23IP (UniProt Q9Y6Y8),0.939 ± 0.057,0.967 ± 0.053,0.944 ± 0.049,0.921 ± 0.051,0.915 ± 0.05,0.917 ± 0.04,0.913 ± 0.051,0.908 ± 0.05
UniProt Q9UPQ9 and related entries,0.993 ± 0.052,0.969 ± 0.074,1.03 ± 0.071,1.02 ± 0.12,1.03 ± 0.077,1.07 ± 0.098,1.08 ± 0.04,1.11 ± 0.093
UniProt Q9Y6A4,1.09 ± 0.027,1.04 ± 0.076,0.962 ± 0.024,0.968 ± 0.1,1.01 ± 0.05,0.964 ± 0.087,1.01 ± 0.05,0.957 ± 0.11
SNX8 (UniProt Q9Y5X2),0.94 ± 0.036,0.879 ± 0.045,0.976 ± 0.065,0.983 ± 0.076,0.982 ± 0.098,0.951 ± 0.06,0.894 ± 0.066,0.932 ± 0.055
UniProt Q9Y3P8 and related entries,0.993 ± 0.044,1.03 ± 0.053,1.08 ± 0.0043,1.14 ± 0.14,1.12 ± 0.019,1.011 ± 0.0093,1.03 ± 0.042,1.09 ± 0.04
